Reference: publication PMC7177724
These are yes or no findings as the source states them, for the method shown. In cells and extracts the contact can be indirect. A yes stands for co-enrichment or nearness to the bait. Other partners may have been found.

Protein sequences, listed by entry. Tags and fused reporters are not part of them.
UniProt P26196: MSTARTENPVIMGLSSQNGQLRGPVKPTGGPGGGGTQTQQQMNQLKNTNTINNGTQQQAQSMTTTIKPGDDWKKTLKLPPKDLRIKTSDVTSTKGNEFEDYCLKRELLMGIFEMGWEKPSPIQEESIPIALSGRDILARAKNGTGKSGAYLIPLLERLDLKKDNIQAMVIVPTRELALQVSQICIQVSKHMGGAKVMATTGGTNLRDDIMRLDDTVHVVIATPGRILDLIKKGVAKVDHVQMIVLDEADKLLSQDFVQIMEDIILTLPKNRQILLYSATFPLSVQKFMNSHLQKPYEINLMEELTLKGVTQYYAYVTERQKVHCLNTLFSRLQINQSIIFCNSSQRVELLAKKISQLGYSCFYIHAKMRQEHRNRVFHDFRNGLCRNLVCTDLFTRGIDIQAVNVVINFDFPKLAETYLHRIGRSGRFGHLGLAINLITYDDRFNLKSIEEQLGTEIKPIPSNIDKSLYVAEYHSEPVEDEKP
UniProt Q99700: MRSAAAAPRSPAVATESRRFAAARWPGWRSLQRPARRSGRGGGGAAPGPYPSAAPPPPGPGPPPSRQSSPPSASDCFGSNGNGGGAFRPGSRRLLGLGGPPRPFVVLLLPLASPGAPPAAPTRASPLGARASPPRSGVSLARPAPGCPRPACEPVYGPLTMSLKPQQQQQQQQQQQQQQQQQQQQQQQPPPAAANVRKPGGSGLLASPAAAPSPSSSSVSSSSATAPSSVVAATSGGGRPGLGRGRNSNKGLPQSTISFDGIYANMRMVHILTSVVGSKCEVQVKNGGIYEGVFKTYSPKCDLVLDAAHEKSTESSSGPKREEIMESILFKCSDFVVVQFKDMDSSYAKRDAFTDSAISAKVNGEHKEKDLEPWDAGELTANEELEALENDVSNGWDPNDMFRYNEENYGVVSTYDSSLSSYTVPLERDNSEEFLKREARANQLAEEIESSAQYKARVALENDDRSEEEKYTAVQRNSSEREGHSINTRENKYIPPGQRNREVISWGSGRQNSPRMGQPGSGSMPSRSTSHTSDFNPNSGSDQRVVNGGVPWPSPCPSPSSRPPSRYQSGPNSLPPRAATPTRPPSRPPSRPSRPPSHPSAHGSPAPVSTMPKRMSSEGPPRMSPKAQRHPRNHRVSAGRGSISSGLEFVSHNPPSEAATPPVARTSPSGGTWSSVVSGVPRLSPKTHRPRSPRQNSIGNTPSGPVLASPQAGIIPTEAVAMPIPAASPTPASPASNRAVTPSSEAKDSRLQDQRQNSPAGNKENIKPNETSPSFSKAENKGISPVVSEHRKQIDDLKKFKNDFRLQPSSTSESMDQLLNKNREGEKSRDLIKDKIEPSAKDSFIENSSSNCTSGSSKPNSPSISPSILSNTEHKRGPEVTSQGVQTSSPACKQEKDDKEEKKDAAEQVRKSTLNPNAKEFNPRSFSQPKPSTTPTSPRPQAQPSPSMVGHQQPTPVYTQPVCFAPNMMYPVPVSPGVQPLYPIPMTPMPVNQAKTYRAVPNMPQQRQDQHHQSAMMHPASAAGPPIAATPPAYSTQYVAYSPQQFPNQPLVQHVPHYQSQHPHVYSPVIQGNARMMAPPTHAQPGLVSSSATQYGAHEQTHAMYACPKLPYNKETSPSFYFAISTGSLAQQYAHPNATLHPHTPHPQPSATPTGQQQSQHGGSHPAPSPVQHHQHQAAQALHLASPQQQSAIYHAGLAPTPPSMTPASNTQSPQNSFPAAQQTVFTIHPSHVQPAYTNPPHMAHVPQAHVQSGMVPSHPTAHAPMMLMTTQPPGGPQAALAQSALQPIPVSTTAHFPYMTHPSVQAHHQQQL
UniProt P67809: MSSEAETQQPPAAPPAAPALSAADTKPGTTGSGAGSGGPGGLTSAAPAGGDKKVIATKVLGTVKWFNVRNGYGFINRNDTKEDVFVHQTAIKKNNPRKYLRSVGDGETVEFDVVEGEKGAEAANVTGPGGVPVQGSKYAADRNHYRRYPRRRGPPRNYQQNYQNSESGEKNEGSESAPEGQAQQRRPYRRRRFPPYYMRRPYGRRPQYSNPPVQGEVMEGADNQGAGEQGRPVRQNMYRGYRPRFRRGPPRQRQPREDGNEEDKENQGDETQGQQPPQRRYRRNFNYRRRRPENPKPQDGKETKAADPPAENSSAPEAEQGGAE

Columns and labels:
[1] = molecular target: DDX6 helicase (human (endogenous in hASCs)) (UniProt P26196); test: affinity purification with mass spectrometry; initial test of the protocol: endogenous DDX6 immunoprecipitated from hASC extract with anti-DDX6 (MBL PD009) and protein A Dynabeads; variations with or without precleaning, extraction with denaturing buffer or TRIzol; lysis buffer with RNase inhibitor; compared with input and flow-through
[2] = molecular target: DDX6 helicase (human (endogenous in hASCs)) (UniProt P26196); test: affinity purification with mass spectrometry; endogenous DDX6 immunoprecipitated with anti-DDX6 (MBL PD009) and protein A Dynabeads after precleaning, TRIzol extraction; hASCs not induced or induced to adipogenesis or osteogenesis for 24 h; lysis buffer with 1% NP-40 and RNase inhibitor; washes up to 500 mM NaCl and 2 M urea; proteins found on precleaning beads removed; two donors, two technical replicates

| Substance | binding [1] | binding [2] |
| --- | --- | --- |
| ATXN2 (from UniProt Q99700 1-1313) | binds | binds |
| YBX1 (from UniProt P67809 1-324) | binds | binds |
